Values quoted from earlier work as cited in patent publication US20180280464A1, “Compositions and Methods for Pain Relief” (Preleve Therapeutics, LLC, priority 2015, published 2018).
At least one compound was matched to its structure with a doubt left.

Test system: knee osteoarthritis
Settings: Rhulief 500 mg or celecoxib 100 mg, oral, twice daily; 12 weeks; no difference between the two groups

Q: Which range of movement does the source give for `Cc1ccc(-c2cc(C(F)(F)F)nn2-c2ccc(S(N)(=O)=O)cc2)cc1` [celecoxib] here?
A: Its range of movement is “improvements in the range of movement”.
